Measured values reported in the supplement of paper PMC10849652.
The list shows a part of the results.

The chains behind the UniProt entries cited, without tags or fusion partners. Where a name states a change or a piece, a line headed by the entry shows the natural chain unless it says otherwise.
UniProt O75362: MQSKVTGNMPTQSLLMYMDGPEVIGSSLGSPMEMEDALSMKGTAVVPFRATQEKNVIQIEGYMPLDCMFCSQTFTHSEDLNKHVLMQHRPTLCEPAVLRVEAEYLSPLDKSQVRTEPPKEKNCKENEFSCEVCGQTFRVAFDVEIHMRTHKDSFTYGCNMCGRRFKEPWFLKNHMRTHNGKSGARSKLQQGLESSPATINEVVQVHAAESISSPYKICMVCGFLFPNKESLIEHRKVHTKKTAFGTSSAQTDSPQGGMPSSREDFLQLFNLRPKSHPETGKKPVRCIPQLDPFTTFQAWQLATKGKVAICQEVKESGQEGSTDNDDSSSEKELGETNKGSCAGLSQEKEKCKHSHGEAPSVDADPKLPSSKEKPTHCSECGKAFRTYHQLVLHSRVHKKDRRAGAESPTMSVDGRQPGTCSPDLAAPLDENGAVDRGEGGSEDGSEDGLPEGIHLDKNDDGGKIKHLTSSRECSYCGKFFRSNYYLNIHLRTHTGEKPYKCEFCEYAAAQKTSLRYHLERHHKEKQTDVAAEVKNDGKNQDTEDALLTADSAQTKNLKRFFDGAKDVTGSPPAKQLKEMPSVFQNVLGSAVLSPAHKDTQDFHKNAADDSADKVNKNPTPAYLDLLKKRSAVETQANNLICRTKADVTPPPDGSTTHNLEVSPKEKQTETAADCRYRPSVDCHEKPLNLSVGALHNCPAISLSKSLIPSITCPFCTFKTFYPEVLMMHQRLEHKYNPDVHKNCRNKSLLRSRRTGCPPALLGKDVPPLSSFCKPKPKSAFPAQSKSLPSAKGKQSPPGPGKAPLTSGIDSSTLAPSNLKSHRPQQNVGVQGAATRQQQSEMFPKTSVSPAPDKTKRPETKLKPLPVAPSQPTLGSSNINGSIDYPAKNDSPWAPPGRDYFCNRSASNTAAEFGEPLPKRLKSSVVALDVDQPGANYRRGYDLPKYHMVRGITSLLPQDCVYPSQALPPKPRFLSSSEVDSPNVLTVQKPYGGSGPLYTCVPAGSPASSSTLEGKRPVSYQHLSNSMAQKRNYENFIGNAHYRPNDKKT
UniProt O76080: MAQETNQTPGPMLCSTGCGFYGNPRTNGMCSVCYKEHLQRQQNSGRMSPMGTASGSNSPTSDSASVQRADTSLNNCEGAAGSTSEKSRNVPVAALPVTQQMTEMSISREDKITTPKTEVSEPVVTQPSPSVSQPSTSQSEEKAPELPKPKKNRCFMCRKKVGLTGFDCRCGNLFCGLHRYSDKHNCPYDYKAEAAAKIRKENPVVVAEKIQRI
UniProt P27348: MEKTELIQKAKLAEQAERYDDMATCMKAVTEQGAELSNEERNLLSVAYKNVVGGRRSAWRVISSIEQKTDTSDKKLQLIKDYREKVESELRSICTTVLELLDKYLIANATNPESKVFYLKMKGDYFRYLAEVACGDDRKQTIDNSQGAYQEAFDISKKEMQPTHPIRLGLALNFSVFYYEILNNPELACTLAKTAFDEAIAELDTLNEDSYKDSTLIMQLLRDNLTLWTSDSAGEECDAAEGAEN
UniProt Q8N4Q0: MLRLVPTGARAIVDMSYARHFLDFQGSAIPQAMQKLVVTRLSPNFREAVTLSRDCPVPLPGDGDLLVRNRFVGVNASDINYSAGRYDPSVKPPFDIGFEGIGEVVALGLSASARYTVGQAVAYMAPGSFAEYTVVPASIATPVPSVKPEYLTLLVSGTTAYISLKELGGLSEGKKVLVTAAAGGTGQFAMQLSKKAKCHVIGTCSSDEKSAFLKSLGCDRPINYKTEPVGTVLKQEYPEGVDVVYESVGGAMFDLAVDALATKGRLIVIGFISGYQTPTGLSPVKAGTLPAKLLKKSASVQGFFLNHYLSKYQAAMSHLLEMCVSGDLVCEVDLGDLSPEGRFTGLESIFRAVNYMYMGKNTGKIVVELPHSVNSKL
UniProt P62699: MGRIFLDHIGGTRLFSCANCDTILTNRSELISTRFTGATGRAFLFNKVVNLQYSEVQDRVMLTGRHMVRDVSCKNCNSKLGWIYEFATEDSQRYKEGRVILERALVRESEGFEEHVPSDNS
UniProt Q9UIJ5: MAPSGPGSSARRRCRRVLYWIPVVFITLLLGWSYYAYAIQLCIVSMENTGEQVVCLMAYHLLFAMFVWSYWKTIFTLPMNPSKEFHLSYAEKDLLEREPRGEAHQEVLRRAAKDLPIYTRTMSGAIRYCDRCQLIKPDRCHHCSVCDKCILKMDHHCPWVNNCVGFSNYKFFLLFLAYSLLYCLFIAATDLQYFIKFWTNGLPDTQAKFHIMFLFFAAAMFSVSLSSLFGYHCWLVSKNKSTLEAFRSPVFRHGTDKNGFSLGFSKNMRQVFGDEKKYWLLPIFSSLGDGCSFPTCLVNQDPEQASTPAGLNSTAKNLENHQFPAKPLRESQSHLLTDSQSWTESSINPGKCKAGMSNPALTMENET
UniProt P52747: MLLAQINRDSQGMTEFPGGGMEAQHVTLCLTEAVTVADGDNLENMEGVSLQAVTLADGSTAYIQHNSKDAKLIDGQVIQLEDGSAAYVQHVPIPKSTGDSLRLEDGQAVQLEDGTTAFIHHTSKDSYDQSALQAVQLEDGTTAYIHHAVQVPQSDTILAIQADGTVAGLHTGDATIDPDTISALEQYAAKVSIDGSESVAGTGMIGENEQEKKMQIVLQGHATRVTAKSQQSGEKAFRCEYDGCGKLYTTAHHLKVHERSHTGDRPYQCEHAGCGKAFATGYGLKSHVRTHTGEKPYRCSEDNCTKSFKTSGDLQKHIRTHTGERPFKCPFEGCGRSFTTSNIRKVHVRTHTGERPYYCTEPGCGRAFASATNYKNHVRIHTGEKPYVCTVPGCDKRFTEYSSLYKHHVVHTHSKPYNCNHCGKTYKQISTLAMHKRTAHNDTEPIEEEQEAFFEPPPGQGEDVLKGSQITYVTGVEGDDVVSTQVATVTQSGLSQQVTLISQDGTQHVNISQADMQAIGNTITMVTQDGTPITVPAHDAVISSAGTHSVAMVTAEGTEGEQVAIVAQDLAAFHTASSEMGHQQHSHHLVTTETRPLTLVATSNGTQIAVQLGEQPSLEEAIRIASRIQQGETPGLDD
UniProt Q8IUH4: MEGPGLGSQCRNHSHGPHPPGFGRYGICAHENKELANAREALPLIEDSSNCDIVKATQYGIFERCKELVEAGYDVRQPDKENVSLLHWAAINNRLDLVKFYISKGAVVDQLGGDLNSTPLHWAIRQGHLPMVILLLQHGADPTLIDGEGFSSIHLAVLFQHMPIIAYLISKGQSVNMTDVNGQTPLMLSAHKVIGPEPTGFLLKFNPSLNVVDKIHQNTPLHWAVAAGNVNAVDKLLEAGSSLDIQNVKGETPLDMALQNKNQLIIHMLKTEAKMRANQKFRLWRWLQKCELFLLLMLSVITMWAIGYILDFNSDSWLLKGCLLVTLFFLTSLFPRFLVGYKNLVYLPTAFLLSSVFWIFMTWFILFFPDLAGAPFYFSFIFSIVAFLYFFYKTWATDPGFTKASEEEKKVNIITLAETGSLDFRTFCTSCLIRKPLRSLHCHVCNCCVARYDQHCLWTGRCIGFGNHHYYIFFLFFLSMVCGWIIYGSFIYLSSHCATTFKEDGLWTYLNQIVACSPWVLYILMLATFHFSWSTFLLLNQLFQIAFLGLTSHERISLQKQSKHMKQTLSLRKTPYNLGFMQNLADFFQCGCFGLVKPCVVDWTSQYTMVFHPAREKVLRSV
UniProt O95159: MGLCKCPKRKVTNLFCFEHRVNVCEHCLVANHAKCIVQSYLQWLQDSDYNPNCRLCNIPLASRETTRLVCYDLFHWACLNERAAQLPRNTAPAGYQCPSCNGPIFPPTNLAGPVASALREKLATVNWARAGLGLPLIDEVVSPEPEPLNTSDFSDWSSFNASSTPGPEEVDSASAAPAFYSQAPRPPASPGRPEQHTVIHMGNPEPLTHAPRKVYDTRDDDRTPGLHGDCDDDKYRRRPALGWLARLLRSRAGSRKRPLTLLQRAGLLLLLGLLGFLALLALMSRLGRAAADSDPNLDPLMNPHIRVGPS
UniProt P37275: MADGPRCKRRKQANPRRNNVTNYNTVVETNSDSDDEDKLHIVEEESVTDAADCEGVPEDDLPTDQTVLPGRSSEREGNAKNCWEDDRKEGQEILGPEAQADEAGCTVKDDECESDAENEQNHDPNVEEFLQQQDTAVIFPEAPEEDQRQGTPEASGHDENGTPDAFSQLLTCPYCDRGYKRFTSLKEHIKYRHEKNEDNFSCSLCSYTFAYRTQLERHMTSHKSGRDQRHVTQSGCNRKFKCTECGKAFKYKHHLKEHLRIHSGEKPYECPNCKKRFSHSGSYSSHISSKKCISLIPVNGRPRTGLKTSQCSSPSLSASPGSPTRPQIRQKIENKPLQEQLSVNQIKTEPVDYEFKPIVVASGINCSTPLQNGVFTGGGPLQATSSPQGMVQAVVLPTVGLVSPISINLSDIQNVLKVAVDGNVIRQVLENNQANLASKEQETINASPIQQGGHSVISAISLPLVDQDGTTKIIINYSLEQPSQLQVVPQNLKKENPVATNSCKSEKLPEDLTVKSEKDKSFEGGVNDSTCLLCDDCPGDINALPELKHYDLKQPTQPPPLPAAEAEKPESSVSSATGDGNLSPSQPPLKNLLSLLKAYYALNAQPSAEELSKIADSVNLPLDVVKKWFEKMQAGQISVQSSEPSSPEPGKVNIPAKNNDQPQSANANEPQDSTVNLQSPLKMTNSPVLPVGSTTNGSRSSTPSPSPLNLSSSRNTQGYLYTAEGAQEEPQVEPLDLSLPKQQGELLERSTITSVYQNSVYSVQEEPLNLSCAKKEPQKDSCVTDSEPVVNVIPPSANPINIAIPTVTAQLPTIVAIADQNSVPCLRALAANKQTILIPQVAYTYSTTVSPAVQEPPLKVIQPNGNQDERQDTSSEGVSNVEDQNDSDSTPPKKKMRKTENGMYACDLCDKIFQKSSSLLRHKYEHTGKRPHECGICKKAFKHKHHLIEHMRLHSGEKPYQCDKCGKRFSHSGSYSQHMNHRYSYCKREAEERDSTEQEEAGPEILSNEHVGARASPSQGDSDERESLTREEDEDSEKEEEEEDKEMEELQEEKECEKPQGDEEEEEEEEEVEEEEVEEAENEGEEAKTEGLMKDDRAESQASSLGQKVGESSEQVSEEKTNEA
UniProt Q9C0B5: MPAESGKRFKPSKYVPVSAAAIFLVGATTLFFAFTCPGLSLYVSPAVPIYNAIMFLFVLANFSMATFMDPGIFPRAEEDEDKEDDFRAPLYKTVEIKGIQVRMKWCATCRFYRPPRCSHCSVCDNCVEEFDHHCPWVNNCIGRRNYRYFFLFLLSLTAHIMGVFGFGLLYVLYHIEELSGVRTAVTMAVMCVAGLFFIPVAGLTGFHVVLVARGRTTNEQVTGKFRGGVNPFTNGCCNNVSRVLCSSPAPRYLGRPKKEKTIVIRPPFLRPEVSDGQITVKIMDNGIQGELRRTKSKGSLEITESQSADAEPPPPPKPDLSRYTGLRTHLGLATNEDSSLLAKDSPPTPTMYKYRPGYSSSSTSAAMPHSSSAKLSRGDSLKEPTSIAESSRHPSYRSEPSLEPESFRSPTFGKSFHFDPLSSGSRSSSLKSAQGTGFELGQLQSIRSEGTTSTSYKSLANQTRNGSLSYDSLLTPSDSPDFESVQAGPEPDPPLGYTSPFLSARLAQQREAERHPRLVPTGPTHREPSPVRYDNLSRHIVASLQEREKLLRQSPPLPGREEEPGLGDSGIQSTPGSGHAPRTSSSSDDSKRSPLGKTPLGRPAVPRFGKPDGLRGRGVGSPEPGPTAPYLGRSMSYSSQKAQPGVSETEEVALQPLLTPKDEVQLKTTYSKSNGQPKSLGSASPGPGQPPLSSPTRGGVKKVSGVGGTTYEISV
UniProt P18887, whole entry, looked up: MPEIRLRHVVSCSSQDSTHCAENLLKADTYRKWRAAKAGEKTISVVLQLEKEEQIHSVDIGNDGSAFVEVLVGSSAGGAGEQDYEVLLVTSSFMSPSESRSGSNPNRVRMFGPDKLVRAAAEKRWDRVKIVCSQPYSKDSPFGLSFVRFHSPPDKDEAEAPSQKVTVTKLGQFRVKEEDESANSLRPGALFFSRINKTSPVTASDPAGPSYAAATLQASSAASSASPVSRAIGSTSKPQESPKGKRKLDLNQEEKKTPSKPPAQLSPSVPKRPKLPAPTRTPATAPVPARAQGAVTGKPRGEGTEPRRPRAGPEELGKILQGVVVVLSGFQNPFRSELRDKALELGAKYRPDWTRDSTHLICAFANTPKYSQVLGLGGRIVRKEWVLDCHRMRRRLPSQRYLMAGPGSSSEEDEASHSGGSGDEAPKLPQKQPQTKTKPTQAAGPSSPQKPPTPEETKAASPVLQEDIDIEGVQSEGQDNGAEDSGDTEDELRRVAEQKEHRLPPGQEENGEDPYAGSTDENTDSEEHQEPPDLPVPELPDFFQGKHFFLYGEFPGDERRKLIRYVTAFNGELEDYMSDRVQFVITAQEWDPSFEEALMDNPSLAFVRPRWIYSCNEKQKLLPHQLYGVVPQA

Columns and labels:
Test in all cases: log2 fold change, soluble protein after heating vs DMSO (PISA); higher = thermal stabilisation; K562 cells, 10 uM, 30 min; active = over 0.2 and 3.5 SD of the protein, either way, in both replicates (recomputed)
[1] = compound: CS(=O)(=O)c1ccc(-c2cnc(N)c(C(=O)Nc3ccccc3)n2)cc1
Summary of the method: (§1)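 K562 cells at 2×10^6 cells/mL were treated with 10 μM compound for 30 min. Aliquots were heated for 3 min across 48°C-58°C, pooled, and extracted in PBS with 0.5% NP-40 at 4°C; soluble protein was the supernatant after 21,000xg for 90 min. Soluble protein was quantified by TMTpro 16plex LC-MS/MS with channel sums equalised, and reported as log2 fold change in thermal stability against DMSO controls, with values from duplicates.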

crizotinib = compound: C[C@@H](Oc1cc(-c2cnn(C3CCNCC3)c2)cnc1N)c1c(Cl)ccc(F)c1Cl [crizotinib]
Summary of the method: as §1

[2] = compound: C[C@@H]1COCCN1C2=NC(=NC(=C2)C3(CC3)S(=O)(=O)C)C4=C5C=CNC5=CC=C4
Summary of the method: as §1

[3] = compound: C[C@H](C1=CC=C(C=C1)C(=O)NC2=C3C=CNC3=NC=C2)N
Summary of the method: as §1

gandotinib = compound: Cc1cc(Nc2cc(CN3CCOCC3)c3nc(C)c(Cc4ccc(Cl)cc4F)n3n2)n[nH]1 [gandotinib]
Summary of the method: as §1

[4] = compound: Cc1cc(SCc2sc(-c3ccc(C(F)(F)F)cc3)nc2C)ccc1OCC(=O)O
Summary of the method: as §1

doramapimod = compound: Cc1ccc(-n2nc(C(C)(C)C)cc2NC(=O)Nc2ccc(OCCN3CCOCC3)c3ccccc23)cc1 [doramapimod]
Summary of the method: as §1

ispinesib = compound: Cc1ccc(C(=O)N(CCCN)[C@@H](c2nc3cc(Cl)ccc3c(=O)n2Cc2ccccc2)C(C)C)cc1 [ispinesib]
Summary of the method: as §1

duvelisib = compound: C[C@H](Nc1ncnc2nc[nH]c12)c1cc2cccc(Cl)c2c(=O)n1-c1ccccc1 [duvelisib]
Summary of the method: as §1

tozasertib = compound: Cc1cc(Nc2cc(N3CCN(C)CC3)nc(Sc3ccc(NC(=O)C4CC4)cc3)n2)n[nH]1 [tozasertib]
Summary of the method: as §1

Measured: log2 fold change

ZNF217 (UniProt O75362)
inactive: [1] -0.037 | crizotinib -0.121 | [2] -0.099 | [3] -0.013 | gandotinib -0.098 | [4] 0.112 | doramapimod -0.027 | ispinesib -0.064

ZFAND5 (UniProt O76080)
inactive: [1] -0.035 | crizotinib -0.085 | [2] 0.041 | [3] -0.021 | gandotinib 0.066 | [4] -0.079 | doramapimod 0.106 | ispinesib -0.07

XRCC3 (UniProt O43542)
inactive: [1] -0.036 | crizotinib -0.012 | [2] -0.03 | [3] -0.03 | duvelisib 0.067 | gandotinib 0.054 | tozasertib -0.003 | [4] -0.003 | doramapimod -0.104 | ispinesib 0.1

YWHAQ (UniProt P27348)
inactive: [1] -0.013 | crizotinib 0.026 | [2] 0.074 | [3] -0.302 | gandotinib -0.071 | [4] 0.119 | doramapimod -0.12 | ispinesib 0.241

YOD1 (UniProt Q5VVQ6)
inactive: [1] 0.117 | crizotinib -0.052 | [2] 0.055 | [3] -0.04 | gandotinib -0.149 | [4] 0.061 | doramapimod 0 | ispinesib -0.042

ZADH2 (UniProt Q8N4Q0)
inactive: [1] -0.063 | crizotinib 0.127 | [2] 0.22 | [3] -0.071 | gandotinib 0.128 | [4] -0.027 | doramapimod -0.013 | ispinesib -0.107

ZBED1 (UniProt O96006)
inactive: [1] 0.223 | [2] -0.032 | [3] -0.28 | duvelisib 0.086 | tozasertib -0.003 | [4] 0.045

ZFAND3 (UniProt Q9H8U3)
inactive: [1] -0.054 | [2] -0.084 | [3] -0.076 | duvelisib -0.038 | gandotinib -0.042 | tozasertib 0.022 | [4] -0.053 | ispinesib -0.056

ZC3H8 (UniProt Q8N5P1)
inactive: [1] 0 | crizotinib 0.089 | [2] -0.151 | [3] 0.218 | gandotinib 0.15 | [4] -0.039 | doramapimod 0.038 | ispinesib -0.016

ZC3H7B (UniProt Q9UGR2)
inactive: [1] -0.061 | crizotinib -0.188 | [3] 0.559 | duvelisib -0.366 | gandotinib -0.024 | tozasertib 0.388 | [4] -0.208 | doramapimod 0.026 | ispinesib -0.276

YPEL5 (UniProt P62699)
inactive: [1] 0.152 | crizotinib 0.019 | [2] -0.079 | [3] 0.163 | gandotinib -0.095 | [4] 0.098 | doramapimod 0.039 | ispinesib -0.039

Reprinted at random: 2 entries already listed
YPEL5 (UniProt P62699)
inactive: [1] 0.152 | crizotinib 0.019 | [2] -0.079 | [3] 0.163 | gandotinib -0.095 | [4] 0.098 | doramapimod 0.039 | ispinesib -0.039

ZBED1 (UniProt O96006)
inactive: [1] 0.223 | [2] -0.032 | [3] -0.28 | duvelisib 0.086 | tozasertib -0.003 | [4] 0.045

Continuation.

XPOT (UniProt O43592)
inactive: [1] 0.009 | crizotinib -0.123 | [2] 0.024 | [3] -0.001 | gandotinib -0.177 | [4] 0.068 | doramapimod -0.011 | ispinesib -0.12

ZDHHC2 (UniProt Q9UIJ5)
inactive: [1] 0.103 | crizotinib -0.033 | gandotinib 0.004 | doramapimod 0.082 | ispinesib -0.088

ZDHHC20 (UniProt Q5W0Z9)
inactive: [1] 0.067 | crizotinib 0.017 | [2] 0.131 | [3] 0.051 | gandotinib 0.018 | [4] -0.249 | doramapimod -0.025 | ispinesib -0.076

YLPM1 (UniProt P49750)
inactive: [1] -0.051 | crizotinib -0.08 | [2] 0.015 | [3] -0.037 | gandotinib -0.117 | [4] 0 | doramapimod 0 | ispinesib 0.034

ZNF207 isoform 2 (UniProt O43670)
inactive: [1] 0.02 | [2] -0.02 | [3] -0.011 | duvelisib -0.023 | gandotinib -0.014 | tozasertib 0.066 | [4] -0.08 | ispinesib 0.006

XK (UniProt P51811)
inactive: [1] -0.067 | crizotinib 0.158 | [3] -0.032 | duvelisib 0.067 | gandotinib 0.149 | [4] -0.137 | doramapimod 0.034

XPNPEP1 isoform 3 (UniProt Q9NQW7)
inactive: [1] 0.069 | crizotinib -0.023 | [2] 0.098 | [3] -0.076 | gandotinib -0.053 | [4] 0.007 | doramapimod 0.028 | ispinesib -0.015

YIPF1 (UniProt Q9Y548)
inactive: [1] 0.064 | [3] -0.015 | tozasertib 0.039

ZKSCAN8 (UniProt Q15776)
inactive: [1] -0.004 | [2] -0.042 | duvelisib -0.234 | gandotinib 0.244 | tozasertib 0.186 | [4] 0.058 | ispinesib -0.198

ZBTB24 (UniProt O43167)
inactive: [1] -0.227 | [2] -0.399 | [3] 0.319 | duvelisib -0.186 | gandotinib 0.054 | tozasertib -0.057 | [4] -0.141 | ispinesib -0.279

XIRP2 isoform 8 (UniProt A4UGR9)
inactive: [1] 0.123 | [3] 0.129 | duvelisib -0.086 | gandotinib 0.082 | tozasertib -0.083 | [4] -0.046

YWHAB (UniProt P31946)
active: gandotinib -0.25
inactive: [1] 0.017 | crizotinib 0.017 | [2] 0.025 | [3] -0.065 | [4] 0.005 | doramapimod 0.022 | ispinesib 0.053

ZNF143 (UniProt P52747)
inactive: [1] -0.014 | crizotinib -0.06 | [2] -0.018 | [3] -0.118 | gandotinib 0.025 | [4] 0.028 | doramapimod 0.01 | ispinesib -0.038

ZDHHC13 (UniProt Q8IUH4)
inactive: [1] 0.113 | [2] -0.105 | [3] 0.102 | ispinesib 0.009

ZBTB10 (UniProt Q96DT7)
inactive: [1] -0.108 | [2] -0.087 | [3] 0.014 | gandotinib 0.045 | tozasertib -0.16

ZFPL1 (UniProt O95159)
inactive: [1] -0.045 | crizotinib 0.107 | [2] -0.056 | [3] -0.006 | gandotinib 0.011 | [4] 0.025 | doramapimod -0.098 | ispinesib 0.236

YIPF4 (UniProt Q9BSR8)
inactive: [1] 0.013 | crizotinib 0.054 | [2] 0.095 | [3] -0.089 | gandotinib -0.086 | [4] -0.04 | doramapimod 0.005 | ispinesib -0.024

ZBTB21 (UniProt Q9ULJ3)
inactive: [1] 0.048 | crizotinib -0.1 | [2] -0.101 | [3] 0.125 | gandotinib 0.074 | [4] 0.043 | doramapimod 0.069 | ispinesib -0.09

ZEB1 isoform 2 (UniProt P37275)
inactive: [1] -0.058 | crizotinib -0.027 | [3] -0.044 | duvelisib -0.005 | gandotinib -0.121 | tozasertib -0.234 | [4] -0.065 | doramapimod -0.046

ZC3H18 (UniProt Q86VM9)
inactive: [1] -0.056 | crizotinib -0.042 | [2] -0.008 | [3] -0.103 | gandotinib 0.017 | [4] -0.034 | doramapimod 0.052 | ispinesib 0.039

XRCC5 (UniProt P13010)
inactive: [1] 0.037 | crizotinib -0.086 | [2] 0.047 | [3] 0.077 | gandotinib -0.001 | [4] 0.179 | doramapimod 0.064 | ispinesib -0.16

ZFPM1 (UniProt Q8IX07)
inactive: [1] 0.05 | [2] 0.222 | [3] -0.139 | duvelisib 0.051 | tozasertib -0.037 | [4] -0.057 | ispinesib -0.127

ZFAND1 (UniProt Q8TCF1)
inactive: [1] -0.014 | crizotinib 0.106 | tozasertib 0.256 | doramapimod -0.011 | ispinesib 0.216

ZFHX4 isoform 5 (UniProt Q86UP3)
inactive: [1] -0.032 | crizotinib -0.112 | tozasertib 0.038 | doramapimod 0.059

ZDHHC5 (UniProt Q9C0B5)
inactive: [1] 0.129 | crizotinib 0.075 | [2] -0.011 | [3] 0.006 | gandotinib -0.041 | [4] -0.03 | doramapimod 0.027 | ispinesib -0.035

ZNF239 (UniProt Q16600)
inactive: [1] -0.06 | crizotinib -0.124 | [2] -0.065 | [3] 0.022 | gandotinib -0.267 | [4] -0.172 | doramapimod 0.069 | ispinesib -0.074

ZEB2 (UniProt O60315)
inactive: [1] 0.025 | crizotinib -0.141 | [2] 0.001 | [4] 0.089 | doramapimod 0.032 | ispinesib 0.05

XRCC1 (UniProt P18887)
inactive: [1] 0 | crizotinib 0.093 | [2] 0.087 | [3] 0.049 | gandotinib -0.019 | [4] -0.132 | doramapimod -0.101 | ispinesib 0.062
